Results reported in PMC10240065.
No constants are given. Whether binding was seen depends on the method and setting. In cells and extracts the contact can be indirect. Here binding means that the protein was enriched with, or labelled near, the bait; the list need not be complete. For some assays here: A no says only that the protein was not detected with the bait. For some assays here: Tags and fused reporters may be left off the sequences shown.

The chains behind the UniProt entries cited, without tags or fusion partners.
UniProt P63087: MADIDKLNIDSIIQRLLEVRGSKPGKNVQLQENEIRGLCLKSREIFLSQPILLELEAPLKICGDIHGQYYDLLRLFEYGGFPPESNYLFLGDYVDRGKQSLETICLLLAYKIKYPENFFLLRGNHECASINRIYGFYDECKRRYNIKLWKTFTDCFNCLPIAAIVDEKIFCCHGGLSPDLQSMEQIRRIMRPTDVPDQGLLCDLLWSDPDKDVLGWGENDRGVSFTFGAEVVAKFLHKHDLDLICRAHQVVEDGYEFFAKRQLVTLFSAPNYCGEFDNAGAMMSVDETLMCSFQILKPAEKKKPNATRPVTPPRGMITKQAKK
UniProt P14873: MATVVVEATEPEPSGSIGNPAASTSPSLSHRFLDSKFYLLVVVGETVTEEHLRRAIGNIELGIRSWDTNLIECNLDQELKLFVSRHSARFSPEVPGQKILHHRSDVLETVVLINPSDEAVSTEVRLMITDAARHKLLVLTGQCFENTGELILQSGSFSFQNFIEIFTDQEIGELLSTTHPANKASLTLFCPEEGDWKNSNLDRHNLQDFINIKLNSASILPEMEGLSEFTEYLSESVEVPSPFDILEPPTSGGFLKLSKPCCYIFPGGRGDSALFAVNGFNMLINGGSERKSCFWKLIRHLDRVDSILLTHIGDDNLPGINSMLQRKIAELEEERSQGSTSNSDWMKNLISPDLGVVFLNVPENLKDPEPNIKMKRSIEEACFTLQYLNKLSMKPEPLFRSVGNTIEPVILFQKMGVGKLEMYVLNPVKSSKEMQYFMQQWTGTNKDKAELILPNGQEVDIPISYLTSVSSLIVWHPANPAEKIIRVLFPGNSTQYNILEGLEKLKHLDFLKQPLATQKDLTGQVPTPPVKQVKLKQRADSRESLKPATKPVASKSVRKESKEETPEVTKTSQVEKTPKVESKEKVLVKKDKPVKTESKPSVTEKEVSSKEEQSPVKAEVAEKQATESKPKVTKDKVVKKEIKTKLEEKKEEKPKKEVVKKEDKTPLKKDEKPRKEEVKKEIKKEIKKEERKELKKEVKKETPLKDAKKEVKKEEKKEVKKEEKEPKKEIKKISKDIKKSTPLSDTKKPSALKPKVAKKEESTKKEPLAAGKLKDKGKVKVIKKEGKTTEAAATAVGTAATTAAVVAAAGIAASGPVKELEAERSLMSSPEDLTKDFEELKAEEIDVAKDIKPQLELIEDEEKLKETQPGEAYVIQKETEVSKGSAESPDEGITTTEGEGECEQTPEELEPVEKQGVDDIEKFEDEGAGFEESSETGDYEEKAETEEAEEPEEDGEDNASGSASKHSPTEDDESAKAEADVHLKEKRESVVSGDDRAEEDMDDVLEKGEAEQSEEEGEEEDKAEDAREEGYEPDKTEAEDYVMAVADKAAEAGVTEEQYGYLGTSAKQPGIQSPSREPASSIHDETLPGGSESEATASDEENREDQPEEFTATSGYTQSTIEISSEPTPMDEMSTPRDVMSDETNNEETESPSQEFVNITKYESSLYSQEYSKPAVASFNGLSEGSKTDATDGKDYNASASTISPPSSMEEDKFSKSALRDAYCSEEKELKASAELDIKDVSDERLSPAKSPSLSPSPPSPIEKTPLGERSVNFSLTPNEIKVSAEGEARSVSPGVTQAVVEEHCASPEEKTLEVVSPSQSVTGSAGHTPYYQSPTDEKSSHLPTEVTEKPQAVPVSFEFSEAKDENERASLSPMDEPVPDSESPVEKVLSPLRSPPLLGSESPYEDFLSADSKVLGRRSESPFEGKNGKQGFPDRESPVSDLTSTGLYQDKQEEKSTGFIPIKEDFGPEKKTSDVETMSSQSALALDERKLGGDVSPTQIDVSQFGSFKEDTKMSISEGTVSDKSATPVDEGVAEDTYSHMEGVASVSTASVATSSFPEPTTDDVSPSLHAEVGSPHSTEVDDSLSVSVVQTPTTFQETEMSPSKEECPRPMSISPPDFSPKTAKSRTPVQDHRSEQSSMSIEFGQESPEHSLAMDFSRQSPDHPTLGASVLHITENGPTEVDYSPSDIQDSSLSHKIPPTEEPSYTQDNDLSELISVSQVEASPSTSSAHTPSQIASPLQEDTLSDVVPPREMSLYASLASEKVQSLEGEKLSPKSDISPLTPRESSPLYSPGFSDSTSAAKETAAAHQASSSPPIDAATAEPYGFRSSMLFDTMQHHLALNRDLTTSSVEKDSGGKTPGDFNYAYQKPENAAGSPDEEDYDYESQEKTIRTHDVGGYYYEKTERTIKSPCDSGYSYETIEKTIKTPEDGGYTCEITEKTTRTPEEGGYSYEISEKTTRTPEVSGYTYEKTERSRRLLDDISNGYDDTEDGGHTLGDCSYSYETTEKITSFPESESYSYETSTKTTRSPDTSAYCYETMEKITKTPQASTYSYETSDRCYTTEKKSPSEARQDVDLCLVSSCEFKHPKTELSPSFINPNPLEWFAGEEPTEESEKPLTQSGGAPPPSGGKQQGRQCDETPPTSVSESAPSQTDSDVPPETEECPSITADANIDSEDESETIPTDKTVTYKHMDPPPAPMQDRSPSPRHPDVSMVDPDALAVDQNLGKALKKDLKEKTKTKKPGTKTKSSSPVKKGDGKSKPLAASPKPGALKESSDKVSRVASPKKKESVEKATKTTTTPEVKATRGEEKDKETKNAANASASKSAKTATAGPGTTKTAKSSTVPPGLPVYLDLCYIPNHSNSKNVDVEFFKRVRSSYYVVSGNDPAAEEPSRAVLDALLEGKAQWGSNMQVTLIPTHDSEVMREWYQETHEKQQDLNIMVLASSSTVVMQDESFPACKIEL
UniProt Q04207: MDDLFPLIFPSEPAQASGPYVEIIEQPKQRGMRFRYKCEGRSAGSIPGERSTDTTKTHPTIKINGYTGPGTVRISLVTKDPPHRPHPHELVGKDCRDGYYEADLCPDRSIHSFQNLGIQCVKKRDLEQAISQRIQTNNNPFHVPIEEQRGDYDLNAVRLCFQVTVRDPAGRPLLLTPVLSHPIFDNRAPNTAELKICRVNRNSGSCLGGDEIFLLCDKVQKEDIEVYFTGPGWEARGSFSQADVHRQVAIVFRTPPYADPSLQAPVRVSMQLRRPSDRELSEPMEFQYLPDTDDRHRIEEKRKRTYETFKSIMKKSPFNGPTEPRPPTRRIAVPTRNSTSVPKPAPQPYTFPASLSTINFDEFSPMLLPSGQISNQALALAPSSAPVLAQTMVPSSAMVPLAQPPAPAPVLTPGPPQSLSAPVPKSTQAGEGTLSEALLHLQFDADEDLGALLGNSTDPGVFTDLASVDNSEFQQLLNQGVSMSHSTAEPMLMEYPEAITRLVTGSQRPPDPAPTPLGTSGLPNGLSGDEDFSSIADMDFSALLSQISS
UniProt P62141: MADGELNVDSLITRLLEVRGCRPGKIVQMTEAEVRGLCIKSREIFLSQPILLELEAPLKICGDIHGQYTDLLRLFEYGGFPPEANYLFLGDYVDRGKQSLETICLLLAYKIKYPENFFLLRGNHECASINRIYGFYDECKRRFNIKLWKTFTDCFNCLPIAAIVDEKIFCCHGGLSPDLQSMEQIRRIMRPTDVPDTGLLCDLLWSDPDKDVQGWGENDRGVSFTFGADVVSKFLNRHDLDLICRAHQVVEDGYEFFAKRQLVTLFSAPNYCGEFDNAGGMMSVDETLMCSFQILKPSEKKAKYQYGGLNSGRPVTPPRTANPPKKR
UniProt P62137: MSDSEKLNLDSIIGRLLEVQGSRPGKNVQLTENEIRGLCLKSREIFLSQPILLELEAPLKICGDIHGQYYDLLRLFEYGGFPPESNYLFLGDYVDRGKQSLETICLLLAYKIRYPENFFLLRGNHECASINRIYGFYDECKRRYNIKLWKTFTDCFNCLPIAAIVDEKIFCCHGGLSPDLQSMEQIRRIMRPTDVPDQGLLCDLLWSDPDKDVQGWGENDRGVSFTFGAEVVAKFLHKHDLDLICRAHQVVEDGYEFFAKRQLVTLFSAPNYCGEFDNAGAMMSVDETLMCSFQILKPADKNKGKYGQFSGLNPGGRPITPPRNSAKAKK

Tests used:
[1] = target: T1, iASPP-Flag (mouse) (UniProt Q5I1X5); assay: affinity purification with mass spectrometry; N2A cells transfected with iASPP-Flag or the control tdTomato-Flag, neuronal differentiation induced; whole cells treated with 2 mM DSP cross-linker 30 min, RIPA lysis, anti-tag antibody overnight at 4°C, protein G beads; LC-MS/MS of the eluate
T1 sequence: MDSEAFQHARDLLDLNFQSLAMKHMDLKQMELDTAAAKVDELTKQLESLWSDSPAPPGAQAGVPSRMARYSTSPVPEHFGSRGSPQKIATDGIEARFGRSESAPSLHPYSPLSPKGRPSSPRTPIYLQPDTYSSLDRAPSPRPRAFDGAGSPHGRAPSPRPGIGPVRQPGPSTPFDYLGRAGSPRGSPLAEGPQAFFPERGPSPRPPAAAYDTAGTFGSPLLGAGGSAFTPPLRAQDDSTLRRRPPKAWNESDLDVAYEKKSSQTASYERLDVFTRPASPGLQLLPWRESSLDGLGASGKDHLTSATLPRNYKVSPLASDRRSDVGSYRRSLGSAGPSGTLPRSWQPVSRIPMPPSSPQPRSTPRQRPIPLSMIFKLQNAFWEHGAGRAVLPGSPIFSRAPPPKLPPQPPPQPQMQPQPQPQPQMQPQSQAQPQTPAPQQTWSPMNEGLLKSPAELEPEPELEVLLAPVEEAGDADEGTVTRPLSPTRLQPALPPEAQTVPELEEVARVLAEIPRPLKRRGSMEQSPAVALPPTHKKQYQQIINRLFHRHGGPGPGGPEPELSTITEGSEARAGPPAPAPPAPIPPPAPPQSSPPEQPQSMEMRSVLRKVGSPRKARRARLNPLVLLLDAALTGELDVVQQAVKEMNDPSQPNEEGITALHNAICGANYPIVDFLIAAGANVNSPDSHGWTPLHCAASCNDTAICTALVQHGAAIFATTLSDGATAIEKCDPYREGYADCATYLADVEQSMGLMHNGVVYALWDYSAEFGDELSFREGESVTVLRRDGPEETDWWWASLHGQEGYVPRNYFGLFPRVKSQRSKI

[2] = target: Sptan1-Myc (mouse) (UniProt P16546); assay: affinity purification with mass spectrometry; Eluents of the Sptan1-Myc pull-down from N2A cells cotransfected with Ppp1ca-Flag, Sptan1-Myc and iASPP or tdTomato; whole cells treated with 2 mM DSP, RIPA lysis, anti-tag antibody, protein G beads; LC-MS/MS with phosphorylation site analysis

binding [1]	binding [2]	Substance
binds	–	Ppp1cc (from UniProt P63087 1-323) (enzyme)
–	binds	Map1b (endogenous) (from UniProt P14873 1-2464)

More lines, now with the values behind:

Substance	binding [1]	binding [2]
RelA/p65 (from UniProt Q04207 1-549)	no binding	–
Ppp1cb (from UniProt P62141 1-327) (enzyme)	binds	–
Ppp1ca (from UniProt P62137 1-330) (enzyme)	binds	–
